Source: patent US12037419B2 (The Feinstein Institutes for Medical Research, priority 2016, dated 2024)
Not every detail of the peptide structures is certain; ends, links or a residue may be inferred. No end group written: not given here.

Sequences of proteins named here, by UniProt entry; tags and fusion partners are left off. Residues count along the entry.
UniProt Q15109, 23-404: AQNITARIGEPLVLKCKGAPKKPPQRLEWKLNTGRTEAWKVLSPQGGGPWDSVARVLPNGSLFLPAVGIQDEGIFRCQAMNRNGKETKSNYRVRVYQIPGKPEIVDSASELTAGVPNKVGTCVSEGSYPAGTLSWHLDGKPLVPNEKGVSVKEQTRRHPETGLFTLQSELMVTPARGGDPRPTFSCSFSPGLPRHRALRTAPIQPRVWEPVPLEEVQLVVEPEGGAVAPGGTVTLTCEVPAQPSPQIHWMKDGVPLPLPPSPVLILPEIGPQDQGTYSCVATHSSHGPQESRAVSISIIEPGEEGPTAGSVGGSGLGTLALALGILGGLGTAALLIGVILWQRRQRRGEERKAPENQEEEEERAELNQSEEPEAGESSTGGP

What was measured:
LAIR-1 = target: T1, LAIR-1 (Homo sapiens, UniProt Q6GTX8); test: LAIR-1 activation by synthetic C1q peptide (FIG. 10)
T1 sequence (Q6GTX8 22-287): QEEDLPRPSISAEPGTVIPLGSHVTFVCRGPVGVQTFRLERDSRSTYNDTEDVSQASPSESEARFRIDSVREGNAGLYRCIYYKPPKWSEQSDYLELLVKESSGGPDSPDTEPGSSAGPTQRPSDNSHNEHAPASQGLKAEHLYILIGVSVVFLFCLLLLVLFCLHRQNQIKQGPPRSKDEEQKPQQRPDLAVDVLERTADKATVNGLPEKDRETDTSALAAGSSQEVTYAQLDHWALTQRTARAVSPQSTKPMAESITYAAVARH

RAGE and LAIR-1 = target: T2, RAGE and LAIR-1 (Homo sapiens, UniProt Q15109+Q6GTX8); test: Proximity ligation assay (PLA) for colocalization of RAGE and LAIR-1 on monocytes; type: cell-based; details: 122 nM, 15 min
T2 construct: endogenous in cells; host or cells: primary human monocytes from blood of healthy donors
Method: Cells were then incubated overnight with a primary antibody pair directed to rabbit anti-RAGE (ab3611, Abcam) and to mouse anti-LAIR-1 (BD Bioscience), respectively. The cells were incubated with corresponding PLA probes conjugated to oligonucleotides (mouse MINUS and rabbit PLUS), then followed by ligation and rolling circle amplification in close proximity. Images were acquired using an AxioImage Z1 (Zeiss) apotome enabled (Zeiss) Fluorescent-intensity analysis of the images was performed using Zen2 (Zeiss).
Immunofluorescence Microscopy: In situ proximal ligation assay was performed according to manufacturer's protocol (Duolink, Sigma). Following stimulation, human monocytes were washed three times with ice-cold PBS and were fixed with 4% (wt/vol) PFA for 1 hour at room temperature, seeded (2×10^5 cells) on slides using cytospin (Shandon), permeablized with chilled MeOH for 4 min and with PBS/0.1% (vol/vol) Triton X-100 and blocked for 1 h at room temperature. Cells were then incubated overnight with a primary antibody pair directed to rabbit anti-RAGE (ab3611, Abcam) and to mouse anti-LAIR-1 (BD Bioscience), respectively. The cells were incubated with corresponding PLA probes conjugated to oligonucleotides (mouse MINUS and rabbit PLUS), then followed by ligation and rolling circle amplification in close proximity. […] Quantification was performed using Zen2 (Zeiss). […]

Sequence: KGEQGEPGAPGI [Synthetic C1q peptide]
- LAIR-1 activation (LAIR-1): activates LAIR-1

Sequence: MGKGDPKKPRGKMSSYAFFVQTGGGGSGGGGSGGGGSKGEQGEPGAPGI [HMGB1-linker-C1q peptide]
- RAGE-LAIR-1 cross-linking by peptide (PLA) (RAGE and LAIR-1): cross-links RAGE and LAIR-1
